Laboratory results from the supplement of paper PMC10849652.
The list shows a part of the results.

Chains of the proteins cited; added tags and fusions are not shown. Lines headed by an entry give the natural chain unless they say otherwise; changes in a name come on top.
UniProt Q96PY6: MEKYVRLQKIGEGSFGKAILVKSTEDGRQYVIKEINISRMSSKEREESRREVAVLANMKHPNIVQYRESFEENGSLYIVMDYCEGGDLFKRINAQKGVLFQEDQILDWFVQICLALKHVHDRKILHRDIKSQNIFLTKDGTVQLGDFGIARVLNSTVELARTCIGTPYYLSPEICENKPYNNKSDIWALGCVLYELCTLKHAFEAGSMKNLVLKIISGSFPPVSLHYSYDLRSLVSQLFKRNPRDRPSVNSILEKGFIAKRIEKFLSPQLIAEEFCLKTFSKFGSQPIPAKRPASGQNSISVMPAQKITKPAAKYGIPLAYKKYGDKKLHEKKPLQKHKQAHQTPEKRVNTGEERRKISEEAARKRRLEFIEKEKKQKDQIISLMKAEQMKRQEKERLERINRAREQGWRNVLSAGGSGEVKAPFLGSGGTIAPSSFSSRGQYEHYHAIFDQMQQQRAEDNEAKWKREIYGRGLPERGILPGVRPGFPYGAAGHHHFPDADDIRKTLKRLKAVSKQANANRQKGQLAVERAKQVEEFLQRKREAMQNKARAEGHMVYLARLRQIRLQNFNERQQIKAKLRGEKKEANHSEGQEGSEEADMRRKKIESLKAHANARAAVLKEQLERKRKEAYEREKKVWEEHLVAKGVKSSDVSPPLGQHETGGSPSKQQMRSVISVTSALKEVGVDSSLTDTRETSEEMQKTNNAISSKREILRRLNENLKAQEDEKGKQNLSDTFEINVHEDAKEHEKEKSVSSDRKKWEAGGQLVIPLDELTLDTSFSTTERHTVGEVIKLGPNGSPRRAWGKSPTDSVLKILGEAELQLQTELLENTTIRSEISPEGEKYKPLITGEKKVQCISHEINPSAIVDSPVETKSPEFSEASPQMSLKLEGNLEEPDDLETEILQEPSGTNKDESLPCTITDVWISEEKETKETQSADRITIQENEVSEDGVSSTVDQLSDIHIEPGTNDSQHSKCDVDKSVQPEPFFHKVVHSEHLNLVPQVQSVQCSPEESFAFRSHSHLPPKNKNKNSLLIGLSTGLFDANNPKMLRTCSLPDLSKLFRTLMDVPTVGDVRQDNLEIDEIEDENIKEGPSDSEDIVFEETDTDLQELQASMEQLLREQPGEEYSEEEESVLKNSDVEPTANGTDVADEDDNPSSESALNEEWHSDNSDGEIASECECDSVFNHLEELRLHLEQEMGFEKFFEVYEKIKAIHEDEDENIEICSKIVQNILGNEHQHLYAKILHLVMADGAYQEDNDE
UniProt Q9UI09, whole entry, looked up: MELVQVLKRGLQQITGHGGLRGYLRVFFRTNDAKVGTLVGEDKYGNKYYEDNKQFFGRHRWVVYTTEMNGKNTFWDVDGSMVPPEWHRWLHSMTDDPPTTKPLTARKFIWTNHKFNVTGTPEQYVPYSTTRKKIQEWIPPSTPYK
UniProt Q15843, whole entry, looked up: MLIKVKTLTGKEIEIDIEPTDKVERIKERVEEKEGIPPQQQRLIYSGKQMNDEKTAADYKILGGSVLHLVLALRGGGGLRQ
UniProt Q96TA1: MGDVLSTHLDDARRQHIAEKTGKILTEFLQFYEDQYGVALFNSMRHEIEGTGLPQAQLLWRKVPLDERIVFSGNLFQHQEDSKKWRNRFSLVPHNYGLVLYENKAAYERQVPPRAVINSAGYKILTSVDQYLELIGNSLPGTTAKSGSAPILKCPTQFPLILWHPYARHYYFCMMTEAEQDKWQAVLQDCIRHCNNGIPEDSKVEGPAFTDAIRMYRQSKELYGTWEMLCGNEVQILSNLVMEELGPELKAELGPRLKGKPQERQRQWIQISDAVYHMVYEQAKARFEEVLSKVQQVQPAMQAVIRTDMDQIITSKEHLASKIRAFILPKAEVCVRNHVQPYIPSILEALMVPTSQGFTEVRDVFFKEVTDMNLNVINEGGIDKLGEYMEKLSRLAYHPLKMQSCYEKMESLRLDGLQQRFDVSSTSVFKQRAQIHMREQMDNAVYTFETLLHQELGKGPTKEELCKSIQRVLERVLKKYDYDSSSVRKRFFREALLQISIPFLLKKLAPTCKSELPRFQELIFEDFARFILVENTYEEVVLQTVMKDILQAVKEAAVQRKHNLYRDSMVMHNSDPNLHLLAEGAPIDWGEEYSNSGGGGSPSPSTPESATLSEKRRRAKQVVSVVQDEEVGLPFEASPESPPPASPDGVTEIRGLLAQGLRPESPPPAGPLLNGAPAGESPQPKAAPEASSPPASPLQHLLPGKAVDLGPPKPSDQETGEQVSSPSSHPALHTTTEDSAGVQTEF
UniProt Q9Y6M9, whole entry, looked up: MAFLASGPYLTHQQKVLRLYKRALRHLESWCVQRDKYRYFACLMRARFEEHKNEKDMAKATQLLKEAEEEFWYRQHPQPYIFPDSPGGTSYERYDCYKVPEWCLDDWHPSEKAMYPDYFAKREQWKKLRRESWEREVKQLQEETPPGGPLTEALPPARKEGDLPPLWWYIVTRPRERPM
UniProt O43676, whole entry, looked up: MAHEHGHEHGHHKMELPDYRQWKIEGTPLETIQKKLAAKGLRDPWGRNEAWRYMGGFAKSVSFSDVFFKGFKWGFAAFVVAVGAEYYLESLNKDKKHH
UniProt Q9UMS0: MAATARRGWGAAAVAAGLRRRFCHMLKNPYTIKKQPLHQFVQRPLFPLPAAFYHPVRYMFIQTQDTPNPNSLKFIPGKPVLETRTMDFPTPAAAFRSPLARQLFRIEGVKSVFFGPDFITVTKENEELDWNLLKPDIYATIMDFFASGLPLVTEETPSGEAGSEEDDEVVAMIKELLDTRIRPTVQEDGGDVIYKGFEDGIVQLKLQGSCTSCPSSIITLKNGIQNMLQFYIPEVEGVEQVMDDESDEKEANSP
UniProt O95167, whole entry, looked up: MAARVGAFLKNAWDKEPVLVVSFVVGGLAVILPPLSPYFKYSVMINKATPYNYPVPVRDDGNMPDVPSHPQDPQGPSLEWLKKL
UniProt O95182, whole entry, looked up: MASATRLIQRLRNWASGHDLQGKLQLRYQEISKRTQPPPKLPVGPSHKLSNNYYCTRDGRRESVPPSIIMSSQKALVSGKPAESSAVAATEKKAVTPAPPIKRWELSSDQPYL
UniProt O00483, whole entry, looked up: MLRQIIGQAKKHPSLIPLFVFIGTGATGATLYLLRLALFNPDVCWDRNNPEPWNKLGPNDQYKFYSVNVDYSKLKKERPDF
UniProt P52849: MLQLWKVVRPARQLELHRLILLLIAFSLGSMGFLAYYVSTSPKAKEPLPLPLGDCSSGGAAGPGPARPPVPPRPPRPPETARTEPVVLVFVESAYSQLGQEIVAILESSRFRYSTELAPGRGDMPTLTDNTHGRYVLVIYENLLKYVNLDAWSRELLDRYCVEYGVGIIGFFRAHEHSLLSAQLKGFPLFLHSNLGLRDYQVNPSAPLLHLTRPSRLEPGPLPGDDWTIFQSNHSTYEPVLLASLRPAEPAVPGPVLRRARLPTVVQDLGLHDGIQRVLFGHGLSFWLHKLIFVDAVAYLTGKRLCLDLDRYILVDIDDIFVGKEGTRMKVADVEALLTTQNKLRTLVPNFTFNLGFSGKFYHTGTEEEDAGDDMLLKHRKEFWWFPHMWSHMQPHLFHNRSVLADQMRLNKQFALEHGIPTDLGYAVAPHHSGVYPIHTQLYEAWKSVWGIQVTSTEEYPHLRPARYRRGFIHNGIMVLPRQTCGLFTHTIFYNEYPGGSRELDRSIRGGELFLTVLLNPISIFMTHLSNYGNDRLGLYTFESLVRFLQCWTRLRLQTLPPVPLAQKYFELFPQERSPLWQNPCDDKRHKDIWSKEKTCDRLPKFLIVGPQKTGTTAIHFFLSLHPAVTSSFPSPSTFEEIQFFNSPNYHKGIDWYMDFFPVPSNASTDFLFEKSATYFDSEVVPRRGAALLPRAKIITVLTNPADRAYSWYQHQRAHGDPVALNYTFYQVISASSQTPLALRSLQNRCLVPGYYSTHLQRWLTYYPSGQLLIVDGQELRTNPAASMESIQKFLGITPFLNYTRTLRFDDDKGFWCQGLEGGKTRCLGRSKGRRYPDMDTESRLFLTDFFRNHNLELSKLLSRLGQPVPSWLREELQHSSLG
UniProt Q9NX14, whole entry, looked up: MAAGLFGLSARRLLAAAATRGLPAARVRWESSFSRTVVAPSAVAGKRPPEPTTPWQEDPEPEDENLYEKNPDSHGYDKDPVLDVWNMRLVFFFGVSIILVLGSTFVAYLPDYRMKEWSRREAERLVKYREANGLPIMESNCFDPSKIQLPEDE
UniProt Q7L592: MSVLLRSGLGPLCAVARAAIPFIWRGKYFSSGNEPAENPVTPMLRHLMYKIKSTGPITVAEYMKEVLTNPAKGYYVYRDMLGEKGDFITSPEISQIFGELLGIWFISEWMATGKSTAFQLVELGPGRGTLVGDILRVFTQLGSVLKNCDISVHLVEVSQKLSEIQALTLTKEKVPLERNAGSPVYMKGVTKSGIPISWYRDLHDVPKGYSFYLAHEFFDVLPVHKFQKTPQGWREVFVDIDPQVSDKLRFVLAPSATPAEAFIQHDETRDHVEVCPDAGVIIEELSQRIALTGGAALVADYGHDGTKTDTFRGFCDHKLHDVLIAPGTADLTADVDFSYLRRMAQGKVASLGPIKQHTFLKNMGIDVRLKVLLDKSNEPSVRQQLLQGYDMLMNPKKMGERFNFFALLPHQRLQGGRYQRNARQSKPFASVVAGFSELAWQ
UniProt Q9NYR9: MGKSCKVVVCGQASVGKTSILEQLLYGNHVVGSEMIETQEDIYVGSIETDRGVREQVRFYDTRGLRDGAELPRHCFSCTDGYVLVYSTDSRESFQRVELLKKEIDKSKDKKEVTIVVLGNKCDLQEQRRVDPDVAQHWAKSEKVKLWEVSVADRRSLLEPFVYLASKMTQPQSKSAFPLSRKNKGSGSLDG
UniProt Q13952: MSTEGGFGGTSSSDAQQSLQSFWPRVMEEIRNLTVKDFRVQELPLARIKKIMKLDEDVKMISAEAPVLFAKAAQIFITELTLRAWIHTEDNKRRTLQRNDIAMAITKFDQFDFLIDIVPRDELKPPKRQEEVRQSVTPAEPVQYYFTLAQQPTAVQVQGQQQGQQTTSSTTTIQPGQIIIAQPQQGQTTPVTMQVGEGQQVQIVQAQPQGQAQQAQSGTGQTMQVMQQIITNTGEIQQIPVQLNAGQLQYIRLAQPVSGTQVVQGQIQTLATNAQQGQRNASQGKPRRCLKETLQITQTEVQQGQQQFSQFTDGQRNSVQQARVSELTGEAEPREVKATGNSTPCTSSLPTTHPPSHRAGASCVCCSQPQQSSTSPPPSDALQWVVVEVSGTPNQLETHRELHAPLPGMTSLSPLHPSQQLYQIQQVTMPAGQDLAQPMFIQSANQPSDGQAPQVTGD
UniProt O43181, whole entry, looked up: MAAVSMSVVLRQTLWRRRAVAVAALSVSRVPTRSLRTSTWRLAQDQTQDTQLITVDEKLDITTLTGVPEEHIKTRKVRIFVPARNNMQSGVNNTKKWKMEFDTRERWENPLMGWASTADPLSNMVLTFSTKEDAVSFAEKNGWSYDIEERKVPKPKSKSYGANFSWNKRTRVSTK
UniProt Q8NBF2: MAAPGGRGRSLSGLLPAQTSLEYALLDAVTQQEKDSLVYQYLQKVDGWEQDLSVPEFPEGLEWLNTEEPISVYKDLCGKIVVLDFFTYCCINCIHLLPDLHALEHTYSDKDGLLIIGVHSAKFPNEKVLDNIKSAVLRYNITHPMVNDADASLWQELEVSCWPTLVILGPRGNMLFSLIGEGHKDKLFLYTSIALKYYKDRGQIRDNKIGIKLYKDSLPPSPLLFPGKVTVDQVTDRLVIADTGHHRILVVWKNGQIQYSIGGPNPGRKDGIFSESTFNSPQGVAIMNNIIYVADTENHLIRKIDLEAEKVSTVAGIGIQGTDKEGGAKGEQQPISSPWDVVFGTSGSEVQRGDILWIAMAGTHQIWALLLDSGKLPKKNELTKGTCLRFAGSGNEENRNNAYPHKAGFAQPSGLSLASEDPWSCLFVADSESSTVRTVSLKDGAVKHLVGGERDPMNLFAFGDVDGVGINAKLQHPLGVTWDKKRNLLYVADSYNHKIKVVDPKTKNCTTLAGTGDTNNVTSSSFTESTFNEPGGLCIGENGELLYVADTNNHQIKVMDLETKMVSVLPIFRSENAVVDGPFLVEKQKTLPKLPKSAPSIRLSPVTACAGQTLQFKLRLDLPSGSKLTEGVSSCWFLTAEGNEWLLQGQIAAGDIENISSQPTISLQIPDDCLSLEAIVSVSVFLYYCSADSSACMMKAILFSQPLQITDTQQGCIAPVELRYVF
UniProt Q8N8Q9: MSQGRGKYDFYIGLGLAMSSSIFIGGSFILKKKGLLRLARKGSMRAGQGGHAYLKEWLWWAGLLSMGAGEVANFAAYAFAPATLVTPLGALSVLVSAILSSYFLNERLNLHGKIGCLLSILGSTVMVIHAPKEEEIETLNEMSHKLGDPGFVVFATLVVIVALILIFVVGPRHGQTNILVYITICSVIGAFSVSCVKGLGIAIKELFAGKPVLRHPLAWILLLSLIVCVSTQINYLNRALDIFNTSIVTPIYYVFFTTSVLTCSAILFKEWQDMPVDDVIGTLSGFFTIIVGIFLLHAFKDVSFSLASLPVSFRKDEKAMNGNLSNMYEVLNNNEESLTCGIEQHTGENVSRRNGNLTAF
UniProt Q16718, whole entry, looked up: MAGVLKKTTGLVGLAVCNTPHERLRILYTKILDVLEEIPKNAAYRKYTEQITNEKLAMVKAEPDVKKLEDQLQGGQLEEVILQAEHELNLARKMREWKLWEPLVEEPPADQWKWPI

Key:
Assay in all cases: log2 fold change, soluble protein after heating vs DMSO (PISA); higher = thermal stabilisation; K562 lysate, 10 uM; active = over 0.2 and 3.5 SD of the protein, either way, in both replicates (recomputed)
[1] = compound: C1=CC=C(C=C1)[C@H](COC2=CC3=C(C=C2)NC(=O)N3)NC(=O)C4=CC=CN(C4=O)CC5=CC(=C(C=C5)F)F
Method in brief: (§1)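 To prepare the extract, K562 pellets were dounce-homogenised in PBS pH 7.4 with 1 mM MgCl2, giving crude material at 1 mg/mL protein. This was treated with 10 μM compound for 30 min, then heated in aliquots for 3 min over 48°C-58°C before pooling and addition of NP-40 to 0.5% at 4°C. Centrifugation at 21,000xg for 90 min left soluble protein in the supernatant, which TMTpro 16plex LC-MS/MS quantified with equalised channel sums. Results are log-two fold changes in thermal stability compared with solvent controls, from duplicates.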

[2] = compound: CC1=C(SC2=C1C(=N[C@H](C3=NN=C(N32)C)CC(=O)N)C4=CC=C(C=C4)Cl)C
Method in brief: as §1

[3] = compound: CC1=C2C(=CC=C1)N=C(N(C2=O)C3=CC=CC=C3C)CN4C=NC5=C(N=CN=C54)N
Method in brief: as §1

[4] = compound: Cc1sc2c(c1C)C(c1ccc(Cl)cc1)=N[C@@H](CC(=O)OC(C)(C)C)c1nnc(C)n1-2
Method in brief: as §1

[5] = compound: c1ccc([C@@H]2C[C@H]2NC2CCNCC2)cc1
Method in brief: as §1

Measured: log2 fold change

NEK1 isoform 3 (UniProt Q96PY6)
inactive: [1] 0.016 | [2] 0.044 | [3] -0.023 | [4] 0.023 | [5] 0.015

NDUFA12 (UniProt Q9UI09)
inactive: [1] 0.007 | [2] -0.069 | [3] 0.118 | [4] -0.091 | [5] 0.003

NEU4 (UniProt C9JEA3)
inactive: [1] 0.061 | [2] 0.017 | [3] 0.024 | [4] -0.068 | [5] 0.061

NEDD8 (UniProt Q15843)
inactive: [1] 0.051 | [2] -0.014 | [3] -0.047 | [4] 0.002 | [5] 0.085

NDUFS1 isoform 2 (UniProt P28331)
inactive: [1] 0.009 | [2] -0.003 | [3] 0.022 | [4] 0.013 | [5] 0.035

NEDD1 isoform 3 (UniProt Q8NHV4)
inactive: [1] 0.02 | [2] -0.009 | [3] 0.091 | [4] -0.042 | [5] 0.02

NIBAN2 (UniProt Q96TA1)
inactive: [1] 0.038 | [2] 0.009 | [3] 0.011 | [4] -0.005 | [5] 0.099

NDUFB9 (UniProt Q9Y6M9)
inactive: [1] 0.027 | [2] -0.028 | [3] -0.065 | [4] 0.065 | [5] 0.069

NDUFB3 (UniProt O43676)
inactive: [1] 0.021 | [2] -0.013 | [3] -0.01 | [4] 0.005 | [5] 0.016

Reprinted from the results shown (2 entries):
NDUFB9 (UniProt Q9Y6M9)
inactive: [1] 0.027 | [2] -0.028 | [3] -0.065 | [4] 0.065 | [5] 0.069

NDUFB3 (UniProt O43676)
inactive: [1] 0.021 | [2] -0.013 | [3] -0.01 | [4] 0.005 | [5] 0.016

Later entries

NFU1 (UniProt Q9UMS0)
inactive: [1] -0.163 | [2] -0.053 | [3] -0.004 | [4] 0.033 | [5] 0.04

NDUFA3 (UniProt O95167)
inactive: [1] -0.079 | [2] 0.102 | [3] -0.009 | [4] 0.007 | [5] -0.041

NDUFA7 (UniProt O95182)
inactive: [1] 0.03 | [2] -0.014 | [3] -0.014 | [4] -0.021 | [5] 0.021

NDUFA4 (UniProt O00483)
inactive: [1] -0.019 | [2] -0.048 | [3] -0.063 | [4] 0.035 | [5] 0.287

NDST2 (UniProt P52849)
inactive: [1] 0.017 | [2] 0.092 | [3] 0.075 | [4] -0.066 | [5] 0.304

NDUFB11 isoform 2 (UniProt Q9NX14)
inactive: [1] -0.083 | [2] 0.006 | [3] 0.021 | [4] 0.018 | [5] -0.016

NDUFAF7 (UniProt Q7L592)
inactive: [1] -0.003 | [2] 0.109 | [3] 0.019 | [4] -0.012 | [5] 0.035

NDUFA6 (UniProt P56556)
inactive: [1] -0.006 | [2] -0.058 | [3] -0.036 | [4] -0.04 | [5] 0.079

NKIRAS2 (UniProt Q9NYR9)
inactive: [1] -0.065 | [2] 0.116 | [3] -0.054 | [4] 0.045 | [5] -0.023

NLE1 (UniProt Q9NVX2)
inactive: [1] 0.033 | [2] 0.01 | [3] -0.006 | [4] -0.01 | [5] -0.028

NFYC (UniProt Q13952)
inactive: [1] 0.075 | [2] -0.034 | [3] 0 | [4] -0.08 | [5] -0.047

NEBL isoform 2 (UniProt O76041)
inactive: [1] -0.025 | [2] -0.102 | [3] 0.018 | [4] -0.07 | [5] -0.094

NDUFS4 (UniProt O43181)
inactive: [1] 0.04 | [2] -0.044 | [3] 0.015 | [4] -0.023 | [5] -0.031

NHLRC2 (UniProt Q8NBF2)
inactive: [1] 0.011 | [2] 0.014 | [3] 0.008 | [4] -0.006 | [5] -0.017

NECTIN2 (UniProt Q92692)
inactive: [1] -0.004 | [2] -0.013 | [3] 0.013 | [4] -0.003 | [5] -0.013

NIPA2 (UniProt Q8N8Q9)
inactive: [1] -0.001 | [2] -0.056 | [3] -0.002 | [4] -0.047 | [5] -0.159

NDUFA5 (UniProt Q16718)
inactive: [1] -0.044 | [2] -0.07 | [3] 0.02 | [4] 0.065 | [5] 0.032
